Results deposited as PubChem BioAssay AID504774 (Drosophila RNAi Screening Center, 2011).
Assay: 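Knock-downs that shift viability of MMS-exposed cells relative to untreated ones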 (primary screen). Cell system: Drosophila Kc167 cells. Reagent: long dsRNA against Drosophila genes, about 0.25 µg dsRNA per well. Timing: about 6 days: 3 days knock-down, then 3 days with or without MMS. Challenge: methyl methanesulphonate 0.004% (w/v) for 3 days after knock-down. Measured: 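Viability in wells given MMS, read as ATP luminescence, normalised by quantiles plate by plate and averaged across replicates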. Scale: mean viability with MMS and viability with MMS: higher = more surviving cells after MMS.
The screen tested about 23,000 reagents; shown is an unselected part of those that have a named target and a result. 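Values are quantile-normalised luminescence on an arbitrary scale; higher means more cells surviving MMS.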 Names joined by + are all predicted targets of the reagent.

predicted target	DRSC id	mean viability with MMS	viability with MMS, replicate 1	viability with MMS, replicate 2
CG5276	DRSC15759	3.60e6	4.08e6	4.04e6
mira	DRSC16998	3.71e6	4.17e6	4.17e6
Def	DRSC07398	3.65e6	4.14e6	4.07e6
snoRNA:U31:54Ec + snoRNA:snR38:54Eb + snoRNA:U27:54Eb + 8 more	DRSC06458	3.53e6	4.16e6	3.85e6
ICA69	DRSC11621	3.55e6	3.97e6	4.09e6
CG13243	DRSC01920	3.63e6	4.09e6	4.12e6
PH4alphaNE2	DRSC16544	3.45e6	3.89e6	3.88e6
Pstk + CG14210 + Tim9b	DRSC19566	3.38e6	3.81e6	3.83e6
Eig71Eb	DRSC11149	3.75e6	4.22e6	4.20e6
mam	DRSC05468	2.95e6	3.73e6	3.73e6
mam	DRSC07648	2.54e6	3.12e6	2.87e6
mam	DRSC22971	3.30e6	3.84e6	3.63e6
CG2021	DRSC08546	3.49e6	3.98e6	3.95e6
CG10814	DRSC06004	3.55e6	4.12e6	3.94e6
mio	DRSC00692	3.12e6	3.45e6	3.44e6
mio	DRSC22056	3.31e6	3.88e6	3.82e6
Obp56c	DRSC06552	3.67e6	3.81e6	3.87e6
Obp56c	DRSC22325	3.52e6	4.00e6	3.97e6
pnt	DRSC17028	3.07e6	3.64e6	3.62e6
pnt	DRSC23204	3.11e6	3.39e6	3.51e6
Uggt	DRSC11315	3.53e6	4.00e6	4.00e6
BckdhB	DRSC21183	3.60e6	4.02e6	4.10e6
CG6329	DRSC06976	3.67e6	4.17e6	4.16e6
CG14185	DRSC10184	3.67e6	4.17e6	4.11e6
Toll-4	DRSC03458	3.55e6	4.03e6	4.03e6
Fnta	DRSC00557	3.52e6	3.95e6	4.01e6
schuy	DRSC10284	3.49e6	3.93e6	3.95e6
CG1468	DRSC17946	3.50e6	3.93e6	3.95e6
CG33631	DRSC12763	3.63e6	4.16e6	4.02e6
cola + swif	DRSC06826	3.60e6	4.01e6	4.12e6
cola + swif	DRSC21965	3.51e6	4.08e6	3.89e6
Mhc	DRSC03367	3.30e6	3.72e6	3.72e6
CG11035	DRSC14287	3.74e6	4.23e6	4.26e6
Sdr	DRSC15517	3.59e6	4.16e6	4.01e6
CG7497	DRSC10857	3.48e6	4.00e6	3.89e6
CG6901	DRSC16129	3.49e6	3.94e6	3.95e6
CG18538	DRSC06765	3.62e6	4.05e6	4.14e6
mura	DRSC16483	3.27e6	3.69e6	3.87e6
mura	DRSC16484	2.56e6	3.61e6	3.60e6
mura	DRSC23145	3.54e6	4.00e6	4.05e6
mbf1	DRSC11365	3.49e6	3.78e6	4.13e6
LpR1	DRSC15665	3.72e6	4.29e6	4.11e6
LpR1	DRSC15669	3.82e6	4.16e6	4.47e6
LpR1	DRSC15670	3.62e6	4.21e6	4.01e6
Cyp6a15Psi	DRSC07377	3.48e6	3.95e6	3.97e6
Bka	DRSC02757	3.39e6	3.85e6	3.78e6
Pdss2	DRSC11625	3.53e6	4.04e6	3.95e6

Part of the list above, set out differently.
| predicted target | DRSC id | mean viability with MMS | viability with MMS, replicate 1 | viability with MMS, replicate 2 |
| --- | --- | --- | --- | --- |
| ICA69 | DRSC11621 | 3.55e6 | 3.97e6 | 4.09e6 |
| CG13243 | DRSC01920 | 3.63e6 | 4.09e6 | 4.12e6 |
| PH4alphaNE2 | DRSC16544 | 3.45e6 | 3.89e6 | 3.88e6 |
| Pstk + CG14210 + Tim9b | DRSC19566 | 3.38e6 | 3.81e6 | 3.83e6 |
| Eig71Eb | DRSC11149 | 3.75e6 | 4.22e6 | 4.20e6 |
| mam | DRSC05468 | 2.95e6 | 3.73e6 | 3.73e6 |
| mam | DRSC07648 | 2.54e6 | 3.12e6 | 2.87e6 |
| mam | DRSC22971 | 3.30e6 | 3.84e6 | 3.63e6 |
| CG2021 | DRSC08546 | 3.49e6 | 3.98e6 | 3.95e6 |
| CG10814 | DRSC06004 | 3.55e6 | 4.12e6 | 3.94e6 |
| mio | DRSC00692 | 3.12e6 | 3.45e6 | 3.44e6 |

More entries follow:
predicted target	DRSC id	mean viability with MMS	viability with MMS, replicate 1	viability with MMS, replicate 2
Rcd-1	DRSC19569	3.69e6	4.13e6	4.17e6
CG42700	DRSC06292	2.88e6	3.16e6	3.69e6
CG42700	DRSC06293	3.66e6	4.24e6	3.87e6
CG42700	DRSC23109	3.59e6	4.17e6	3.97e6
fal	DRSC11087	3.42e6	3.94e6	3.79e6
Ranbp16	DRSC20160	3.65e6	4.19e6	4.07e6
CG3703	DRSC18172	3.82e6	4.19e6	4.44e6
CG3703	DRSC18173	3.79e6	4.41e6	4.14e6
CG3703	DRSC18643	3.54e6	4.12e6	3.93e6
CG18537	DRSC06764	3.65e6	4.08e6	4.17e6
kermit	DRSC06074	3.64e6	4.26e6	4.02e6
tex	DRSC16517	3.32e6	3.73e6	3.86e6
armi	DRSC08193	3.61e6	4.05e6	4.11e6
CG13640	DRSC14639	3.43e6	3.89e6	3.83e6
Tollo	DRSC11305	3.50e6	3.98e6	3.93e6
CG13667	DRSC10028	3.62e6	4.07e6	4.16e6
CG8407	DRSC07167	3.69e6	3.78e6	4.26e6
Jon25Bii	DRSC03114	3.52e6	3.79e6	4.17e6
CG7512	DRSC10863	3.44e6	3.91e6	3.86e6
CG13083	DRSC02187	3.48e6	3.97e6	3.91e6
CG14408	DRSC19595	3.66e6	4.04e6	4.28e6
Or94b	DRSC16773	3.67e6	4.28e6	4.04e6
Fum3	DRSC10592	3.57e6	3.99e6	4.09e6
CG33308	DRSC01419	3.54e6	4.02e6	4.00e6
Vps16A	DRSC16422	3.32e6	3.80e6	3.82e6
tsr	DRSC04718	3.39e6	3.85e6	3.80e6
CG7560	DRSC10879	3.60e6	3.96e6	4.17e6
CG7329	DRSC03046	3.41e6	4.02e6	3.68e6
LysD + LysB + LysC (retired record)	DRSC21249	3.54e6	4.09e6	3.95e6
CG8460	DRSC03090	3.77e6	4.28e6	4.32e6
ppk11	DRSC02737	3.46e6	3.86e6	3.98e6
ana3	DRSC06289	3.75e6	4.11e6	4.53e6
CG4021	DRSC04439	3.60e6	4.10e6	4.08e6
CG3610	DRSC15502	3.59e6	4.07e6	4.10e6
Parg	DRSC18696	3.55e6	4.04e6	4.03e6
CG4733	DRSC15634	3.40e6	3.78e6	3.97e6
Uqcc1 + CG9948	DRSC09690	3.60e6	4.01e6	4.18e6
CG31076	DRSC16017	3.63e6	4.04e6	4.17e6
CG15262	DRSC01975	3.48e6	4.08e6	3.82e6
Ranbp21	DRSC19447	3.37e6	3.76e6	3.82e6
